These are yes or no findings as the source states them, for the method shown. Some results given as binding are weak or reduced against the parent protein; the word gives no strength. Tags and fused reporters may be left off the sequences shown.

In patent publication EP4590718A1 one finds binding data, which are given here for one molecule.

The target of the experiment is T1, FLAG tag.
T1 sequence (peptide): DYKDDDDK
In words: Biacore (SPR). Background: SPR reads the build-up and loss of mass on a sensor chip optically.

B1: parental mouse antibody (mouse VH/VL in the context of human constant regions) (antibody, V domains shown)
VH: QVQLQQSAGELARPGASVKMSCKASGYSFTTYTIHWVKQRPGQGLEWIGYINPSSGYAAYNQNFKDETTLTADKSSSTAYMQLSSLTSEDSAVYYCAREKFYGYDYWGQGTTLTVSS
VL: DVLMTQLPLSLPVSLGDQASISCRSSQSIVHRNGNTYLEWYLLKPGQSPKLLIYKVSNRFSGVPDRFSGSGSGTDFTLKISRVEAEDLGVYYCFQGSHVPYTFGGGTKLEIK
For the molecule B1, the binding result was “binds”.
